No constants are given. Whether binding was seen depends on the method and setting. Binding seen in cells or lysates may run through a third protein. Some entries that bind do so weakly or less than the wild type. Tags and fused reporters may be left off the sequences shown.

By UniProt entry, the sequences of proteins in these tests, tags left out. Residues count along the entry.
UniProt Q6PHU5, residues 74-825: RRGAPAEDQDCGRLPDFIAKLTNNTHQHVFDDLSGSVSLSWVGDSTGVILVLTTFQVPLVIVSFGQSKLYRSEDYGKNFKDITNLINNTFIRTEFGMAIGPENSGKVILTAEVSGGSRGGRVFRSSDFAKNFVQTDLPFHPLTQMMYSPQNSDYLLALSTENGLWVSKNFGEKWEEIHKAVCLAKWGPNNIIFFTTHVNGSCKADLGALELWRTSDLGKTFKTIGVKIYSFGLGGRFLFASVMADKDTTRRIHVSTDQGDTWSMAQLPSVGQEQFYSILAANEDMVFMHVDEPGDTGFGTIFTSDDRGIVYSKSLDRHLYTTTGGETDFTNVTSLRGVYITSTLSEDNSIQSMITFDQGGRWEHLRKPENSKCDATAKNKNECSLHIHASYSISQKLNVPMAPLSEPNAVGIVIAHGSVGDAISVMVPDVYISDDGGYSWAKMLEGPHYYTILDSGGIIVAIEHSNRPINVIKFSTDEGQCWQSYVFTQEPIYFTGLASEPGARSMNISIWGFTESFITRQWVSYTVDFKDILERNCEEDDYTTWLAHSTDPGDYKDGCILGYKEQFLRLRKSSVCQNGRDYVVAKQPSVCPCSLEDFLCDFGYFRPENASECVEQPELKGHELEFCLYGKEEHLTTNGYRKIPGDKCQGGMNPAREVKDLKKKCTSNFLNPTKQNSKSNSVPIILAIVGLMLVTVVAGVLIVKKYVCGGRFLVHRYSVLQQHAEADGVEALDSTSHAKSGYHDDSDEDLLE

Experiment [1] has as its target T1, Myc-tagged mouse fatty acid-binding protein 7 (FABP7) (mouse) (UniProt P51880).
T1 sequence: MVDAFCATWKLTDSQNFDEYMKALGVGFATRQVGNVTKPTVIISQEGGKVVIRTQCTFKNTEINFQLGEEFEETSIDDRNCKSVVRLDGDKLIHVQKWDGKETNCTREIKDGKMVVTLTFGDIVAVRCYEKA
Nature of the experiment: co-IP; anti-Myc affinity resin on lysates of CHO-S/F cells (stably co-expressing sortilin and FABP7-Myc), sortilin detected by blot; also after 24 h treatment of the cells with conditioned HEK293 medium with 5 µg/ml apoE3 or apoE4 or blank medium.

Experiment [2] has as its target T1, Myc-tagged mouse fatty acid-binding protein 7 (FABP7) (mouse). The experiment is described as follows: proximity ligation; fixed CHO-S/F cells (4% PFA), primary antibodies against sortilin and the Myc epitope in FABP7-Myc, orange PLA probes; also after 24 h with conditioned medium with 5 µg/ml apoE3 or apoE4.

For the substance “sortilin (mouse), stably overexpressed in CHO cells (from UniProt Q6PHU5 74-825) (receptor)”, the binding entry in experiment [1] and in experiment [2] was “binds” each time.

For the origin of these results see PMC8572006.
